The list does not hold the whole screen: it gathers tests that were run many times, whatever their T/C, doses with no T/C, and many T/C values between a quarter and a half above the control. Further doses and runs are listed elsewhere. T/C gives the treated animals as a percentage of the vehicle group. Some entries give survivors of the animals treated and no T/C: the source files T/C as zero there, which appears to mark a toxic dose or a test without result, not a measured value. Some survivor counts are full or nearly so, which does not show that the dose was tolerated: survival well below the control is almost never listed, so the zero probably covers shortened survival too. Counts of survivors are from the toxicity check (mostly the fifth day) where no day follows; animals may have died later. Schedule codes are those of the source, read here as Q, the interval in days (D) or hours (H), X, the number of doses. Some doses were run more than once; the values are given in rising order. Where survival is the endpoint, the PubChem record calls one and a half times the control and up active, and a quarter to a half above the control has no call in these data; cut-offs in other NCI protocols can differ. Counts like (3×) say how often a value occurs here. Some T/C values carry the count of animals alive at the toxicity check (mostly the fifth day); where none is given, no animal had died by that day.
System: BDF1 mice, P388 leukemia ip, median survival T/C
Experiment: NCI In Vivo Anticancer Drug Screen. Data for tumor model P388 Leukemia (intraperitoneal) in B6D2F1 (BDF1) mice
Details: T/C endpoint: median survival time, higher T/C = longer survival
Procedure, shortened: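 Antitumour effect was judged in vivo: survival in drug-treated mice, normalised to that of vehicle-dosed controls, gives the reported T/C.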

[1] = dose: 400.0 mg/kg/injection, schedule: Q01DX009 (ip), vehicle: saline
[2] = dose: 200.0 mg/kg/injection, schedule: Q01DX005 (ip), vehicle: saline with Tween-80
[3] = dose: 50.0 mg/kg/injection, schedule: Q01DX005 (ip), vehicle: saline with Tween-80
[4] = dose: 150.0 mg/kg/injection, schedule: Q01DX009 (ip), vehicle: saline
[5] = dose: 100.0 mg/kg/injection, schedule: Q01DX009 (ip), vehicle: saline

O=S(c1ccccc1)c1c(Cl)c(Cl)nc(Cl)c1Cl (stereo not drawn)
T/C (dose: 12.5 mg/kg/injection, schedule: Q01DX009 (ip), vehicle: saline with Tween-80): 131 % of control [5 of 6 alive] | T/C (dose: 25.0 mg/kg/injection, schedule: Q01DX009 (ip), vehicle: saline with Tween-80): 131 % of control [4 of 6 alive] | T/C (dose: 50.0 mg/kg/injection, schedule: Q01DX009 (ip), vehicle: saline with Tween-80): 142 % of control [5 of 6 alive] | survivor count (dose: 100.0 mg/kg/injection, schedule: Q04DX003 (ip), vehicle: saline with Tween-80): 1 of 6

COc1c(Cl)cc2c(c1OC)N(C)C1N3C(=O)C4(C)SSC3(C(=O)N4C)C(O)C21O (stereo not drawn)
survivor count (dose: 0.5 mg/kg/injection, schedule: Q01DX009 (ip), vehicle: Klucel (hydroxypropylcellulose) (HPC)): 6 of 6 | survivor count (dose: 1.0 mg/kg/injection, schedule: Q01DX009 (ip), vehicle: Klucel (hydroxypropylcellulose) (HPC)): 3 of 6 and 5 of 6 | survivor count (dose: 2.0 mg/kg/injection, schedule: Q01DX009 (ip), vehicle: Klucel (hydroxypropylcellulose) (HPC)): 2 of 6

C[C@]12CC[C@@H]3c4ccc(OC5CCCCO5)cc4CC[C@H]3[C@@H]1CC[C@@H]2O (stereo partly drawn)
survivor count [1]: 6 of 6

CCOC(=O)C(Cc1ccc(N(CCCl)CCCl)cc1)NC(=O)CNC(C)=O (stereo not drawn)
survivor count (dose: 75.0 mg/kg/injection, schedule: Q04DX003 (ip), vehicle: saline with Tween-80): 5 of 6

O=C1C=CC(=O)N1c1ccc(-c2nc3ccccc3o2)cc1
survivor count [2]: 0 of 5

Clc1nc2nc(C(Cl)(Cl)Cl)[nH]c2nc1Cl
survivor count (dose: 255.0 mg/kg/injection, schedule: Q04DX003 (ip), vehicle: Klucel (hydroxypropylcellulose) (HPC)): 2 of 6 | survivor count (dose: 385.0 mg/kg/injection, schedule: Q04DX003 (ip), vehicle: Klucel (hydroxypropylcellulose) (HPC)): 0 of 6

C1=C(C2=C[P+](c3ccccc3)(c3ccccc3)C=C(c3ccccc3)O2)OC(c2ccccc2)=C[P+]1(c1ccccc1)c1ccccc1
survivor count [3]: 2 of 5 | survivor count (dose: 100.0 mg/kg/injection, schedule: Q01DX005 (ip), vehicle: saline with Tween-80): 0 of 5 | survivor count [2]: 0 of 5

CC1CCC2(C)CCC(C(C)C)C2(O)CC1 (stereo not drawn)
survivor count (dose: 200.0 mg/kg/injection, schedule: Q01DX009 (ip), vehicle: saline): 6 of 6

c1ccc2c(NCCCCCCCCNc3c4ccccc4nc4ccccc34)c3ccccc3nc2c1
T/C (dose: 5.0 mg/kg/injection, schedule: Q01DX009 (ip), vehicle: Klucel (hydroxypropylcellulose) (HPC)): 129 % of control | T/C (dose: 10.0 mg/kg/injection, schedule: Q01DX009 (ip), vehicle: Klucel (hydroxypropylcellulose) (HPC)): 137 % of control | T/C (dose: 40.0 mg/kg/injection, schedule: Q01DX009 (ip), vehicle: Klucel (hydroxypropylcellulose) (HPC)): 149 % of control

c1ccc2c(c1)cc1c3nncn3ncn21
survivor count (dose: 200.0 mg/kg/injection, schedule: Q01DX009 (ip), vehicle: saline with Tween-80): 4 of 6

Cc1ccc(S(=O)(=O)Cl)c(Cl)c1
survivor count (dose: 200.0 mg/kg/injection, schedule: Q04DX003 (ip), vehicle: saline with Tween-80): 6 of 6

CCCSCCCC(=O)O
survivor count (dose: 100.0 mg/kg/injection, schedule: Q04DX003 (ip), vehicle: Klucel (hydroxypropylcellulose) (HPC)): 6 of 6

O=C1CC(c2ccc(O)cc2)CC(=O)C1C(C1CC=CCC1)N(CCCl)CCCl (stereo not drawn)
T/C (dose: 75.0 mg/kg/injection, schedule: Q04DX003 (ip), vehicle: Klucel (hydroxypropylcellulose) (HPC)): 127 % of control | T/C (dose: 115.0 mg/kg/injection, schedule: Q04DX003 (ip), vehicle: Klucel (hydroxypropylcellulose) (HPC)): 131 % of control | T/C (dose: 177.0 mg/kg/injection, schedule: Q04DX003 (ip), vehicle: Klucel (hydroxypropylcellulose) (HPC)): 125 % of control (2×) | T/C (dose: 200.0 mg/kg/injection, schedule: Q04DX003 (ip), vehicle: Klucel (hydroxypropylcellulose) (HPC)): 127 % of control | T/C (dose: 266.0 mg/kg/injection, schedule: Q04DX003 (ip), vehicle: Klucel (hydroxypropylcellulose) (HPC)): 133 and 140 % of control

O=C(/C=C/c1ccc(Cl)cc1)NCC(O)CO (stereo not drawn)
survivor count (dose: 800.0 mg/kg/injection, schedule: Q01DX009 (ip), vehicle: water): 4 of 6

CCOc1nn2nnnc2c2ccccc12
survivor count (dose: 22.5 mg/kg/injection, schedule: Q01DX009 (ip), vehicle: saline with Tween-80): 7 of 7 | survivor count (dose: 45.0 mg/kg/injection, schedule: Q01DX009 (ip), vehicle: saline with Tween-80): 7 of 7 | survivor count (dose: 90.0 mg/kg/injection, schedule: Q01DX009 (ip), vehicle: saline with Tween-80): 7 of 7

CCN(CC)CCCC(C)Nc1c2ccc(Cl)cc2nc2ccc(OC)cc12 (stereo not drawn)
T/C [4]: 131 % of control | survivor count [4]: 5 of 6 | T/C (dose: 150.0 mg/kg/injection, schedule: Q04DX003 (ip), vehicle: saline): 125 % of control | survivor count (dose: 225.0 mg/kg/injection, schedule: Q04DX003 (ip), vehicle: saline): 4 of 6 | survivor count (dose: 300.0 mg/kg/injection, schedule: Q04DX003 (ip), vehicle: saline): 1 of 6

ICCCCCCCCCC[n+]1ccc2ccccc2c1
T/C (dose: 6.25 mg/kg/injection, schedule: Q01DX005 (ip), vehicle: saline with Tween-80): 127 % of control | T/C [3]: 135 % of control

COc1cc([C@@H]2c3cc4c(c(OC)c3C[C@H]3COC(=O)[C@@H]32)OCO4)cc(OC)c1OC
T/C (dose: 12.5 mg/kg/injection, schedule: Q01DX010 (ip), vehicle: other): 136 % of control | T/C (dose: 25.0 mg/kg/injection, schedule: Q01DX001 (ip), vehicle: other): 126 % of control | T/C (dose: 25.0 mg/kg/injection, schedule: Q01DX010 (ip), vehicle: other): 145 % of control | T/C (dose: 50.0 mg/kg/injection, schedule: Q01DX001 (ip), vehicle: other): 126 % of control | survivor count (dose: 50.0 mg/kg/injection, schedule: Q01DX010 (ip), vehicle: saline): 0 of 6 | T/C (dose: 100.0 mg/kg/injection, schedule: Q01DX001 (ip), vehicle: other): 136 % of control | survivor count (dose: 100.0 mg/kg/injection, schedule: Q01DX010 (ip), vehicle: other): 5 of 6 | survivor count (dose: 100.0 mg/kg/injection, schedule: Q01DX010 (ip), vehicle: saline): 0 of 6

Nc1c(C(=O)O)ccc2c1C(=O)c1ccccc1C2=O
T/C (dose: 44.0 mg/kg/injection, schedule: Q04DX003 (ip), vehicle: Klucel (hydroxypropylcellulose) (HPC)): 125 % of control | survivor count (dose: 200.0 mg/kg/injection, schedule: Q01DX009 (ip), vehicle: gum acacia): 0 of 6

CC(C#N)N(C)C (stereo not drawn)
survivor count (dose: 20.0 mg/kg/injection, schedule: Q01DX009 (ip), vehicle: saline): 2 of 6 | survivor count (dose: 40.0 mg/kg/injection, schedule: Q01DX009 (ip), vehicle: saline): 0 of 6

CC(=O)Nc1ccc(N=Nc2c(C)nn(C(=N)N)c2C)cc1
survivor count [5]: 6 of 6

OC1C2CCC(CC2)C1O (stereo not drawn)
survivor count (dose: 4.5 mg/kg/injection, schedule: Q04DX003 (ip), vehicle: saline with Tween-80): 6 of 6 | survivor count (dose: 18.0 mg/kg/injection, schedule: Q01DX009 (ip), vehicle: saline with Tween-80): 6 of 6

Cc1ccc(CNCC(=O)O)cc1
survivor count (dose: 25.0 mg/kg/injection, schedule: Q01DX009 (ip), vehicle: water): 4 of 6 | survivor count (dose: 50.0 mg/kg/injection, schedule: Q01DX009 (ip), vehicle: water): 6 of 6 | survivor count (dose: 100.0 mg/kg/injection, schedule: Q01DX009 (ip), vehicle: water): 6 of 6 | survivor count (dose: 200.0 mg/kg/injection, schedule: Q01DX009 (ip), vehicle: water): 6 of 6

CC1CN1P(=O)(OCCC#N)N1CC1C (stereo not drawn)
T/C (dose: 44.0 mg/kg/injection, schedule: Q01DX009 (ip), vehicle: other): 145 % of control | T/C (dose: 50.0 mg/kg/injection, schedule: Q01DX009 (ip), vehicle: saline): 143 % of control | T/C (dose: 66.0 mg/kg/injection, schedule: Q01DX009 (ip), vehicle: other): 133 % of control | T/C [5]: 133 and 139 % of control [5 of 6 alive] | survivor count [1]: 4 of 6 | survivor count (dose: 400.0 mg/kg/injection, schedule: Q04DX003 (ip), vehicle: other): 5 of 6

From PubChem BioAssay AID328 (DTP/NCI, 2004)
